Experimental data taken from the supplement of paper PMC10849652.
This is one part of the list.

The chains behind the UniProt entries cited, without tags or fusion partners. Where a name states a change or a piece, a line headed by the entry shows the natural chain unless it says otherwise.
UniProt Q8NE18: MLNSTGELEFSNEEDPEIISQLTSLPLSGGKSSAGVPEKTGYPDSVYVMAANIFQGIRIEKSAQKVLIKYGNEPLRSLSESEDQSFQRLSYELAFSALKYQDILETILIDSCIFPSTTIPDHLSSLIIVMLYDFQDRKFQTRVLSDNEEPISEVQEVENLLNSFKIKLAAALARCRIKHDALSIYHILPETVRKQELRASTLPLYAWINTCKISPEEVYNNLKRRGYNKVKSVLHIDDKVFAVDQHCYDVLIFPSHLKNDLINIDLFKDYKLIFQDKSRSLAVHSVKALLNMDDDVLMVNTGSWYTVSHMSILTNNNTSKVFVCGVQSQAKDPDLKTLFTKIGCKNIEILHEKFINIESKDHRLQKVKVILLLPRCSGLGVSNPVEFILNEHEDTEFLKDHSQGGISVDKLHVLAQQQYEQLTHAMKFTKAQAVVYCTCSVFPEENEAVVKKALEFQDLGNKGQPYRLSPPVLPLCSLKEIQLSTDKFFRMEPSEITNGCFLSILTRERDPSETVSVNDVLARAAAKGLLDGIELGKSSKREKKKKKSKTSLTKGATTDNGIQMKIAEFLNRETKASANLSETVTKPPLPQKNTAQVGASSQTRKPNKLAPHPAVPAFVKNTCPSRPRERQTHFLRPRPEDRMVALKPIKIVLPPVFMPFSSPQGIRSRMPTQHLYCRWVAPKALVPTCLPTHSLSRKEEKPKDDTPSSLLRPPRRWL
UniProt P46531, whole entry, looked up: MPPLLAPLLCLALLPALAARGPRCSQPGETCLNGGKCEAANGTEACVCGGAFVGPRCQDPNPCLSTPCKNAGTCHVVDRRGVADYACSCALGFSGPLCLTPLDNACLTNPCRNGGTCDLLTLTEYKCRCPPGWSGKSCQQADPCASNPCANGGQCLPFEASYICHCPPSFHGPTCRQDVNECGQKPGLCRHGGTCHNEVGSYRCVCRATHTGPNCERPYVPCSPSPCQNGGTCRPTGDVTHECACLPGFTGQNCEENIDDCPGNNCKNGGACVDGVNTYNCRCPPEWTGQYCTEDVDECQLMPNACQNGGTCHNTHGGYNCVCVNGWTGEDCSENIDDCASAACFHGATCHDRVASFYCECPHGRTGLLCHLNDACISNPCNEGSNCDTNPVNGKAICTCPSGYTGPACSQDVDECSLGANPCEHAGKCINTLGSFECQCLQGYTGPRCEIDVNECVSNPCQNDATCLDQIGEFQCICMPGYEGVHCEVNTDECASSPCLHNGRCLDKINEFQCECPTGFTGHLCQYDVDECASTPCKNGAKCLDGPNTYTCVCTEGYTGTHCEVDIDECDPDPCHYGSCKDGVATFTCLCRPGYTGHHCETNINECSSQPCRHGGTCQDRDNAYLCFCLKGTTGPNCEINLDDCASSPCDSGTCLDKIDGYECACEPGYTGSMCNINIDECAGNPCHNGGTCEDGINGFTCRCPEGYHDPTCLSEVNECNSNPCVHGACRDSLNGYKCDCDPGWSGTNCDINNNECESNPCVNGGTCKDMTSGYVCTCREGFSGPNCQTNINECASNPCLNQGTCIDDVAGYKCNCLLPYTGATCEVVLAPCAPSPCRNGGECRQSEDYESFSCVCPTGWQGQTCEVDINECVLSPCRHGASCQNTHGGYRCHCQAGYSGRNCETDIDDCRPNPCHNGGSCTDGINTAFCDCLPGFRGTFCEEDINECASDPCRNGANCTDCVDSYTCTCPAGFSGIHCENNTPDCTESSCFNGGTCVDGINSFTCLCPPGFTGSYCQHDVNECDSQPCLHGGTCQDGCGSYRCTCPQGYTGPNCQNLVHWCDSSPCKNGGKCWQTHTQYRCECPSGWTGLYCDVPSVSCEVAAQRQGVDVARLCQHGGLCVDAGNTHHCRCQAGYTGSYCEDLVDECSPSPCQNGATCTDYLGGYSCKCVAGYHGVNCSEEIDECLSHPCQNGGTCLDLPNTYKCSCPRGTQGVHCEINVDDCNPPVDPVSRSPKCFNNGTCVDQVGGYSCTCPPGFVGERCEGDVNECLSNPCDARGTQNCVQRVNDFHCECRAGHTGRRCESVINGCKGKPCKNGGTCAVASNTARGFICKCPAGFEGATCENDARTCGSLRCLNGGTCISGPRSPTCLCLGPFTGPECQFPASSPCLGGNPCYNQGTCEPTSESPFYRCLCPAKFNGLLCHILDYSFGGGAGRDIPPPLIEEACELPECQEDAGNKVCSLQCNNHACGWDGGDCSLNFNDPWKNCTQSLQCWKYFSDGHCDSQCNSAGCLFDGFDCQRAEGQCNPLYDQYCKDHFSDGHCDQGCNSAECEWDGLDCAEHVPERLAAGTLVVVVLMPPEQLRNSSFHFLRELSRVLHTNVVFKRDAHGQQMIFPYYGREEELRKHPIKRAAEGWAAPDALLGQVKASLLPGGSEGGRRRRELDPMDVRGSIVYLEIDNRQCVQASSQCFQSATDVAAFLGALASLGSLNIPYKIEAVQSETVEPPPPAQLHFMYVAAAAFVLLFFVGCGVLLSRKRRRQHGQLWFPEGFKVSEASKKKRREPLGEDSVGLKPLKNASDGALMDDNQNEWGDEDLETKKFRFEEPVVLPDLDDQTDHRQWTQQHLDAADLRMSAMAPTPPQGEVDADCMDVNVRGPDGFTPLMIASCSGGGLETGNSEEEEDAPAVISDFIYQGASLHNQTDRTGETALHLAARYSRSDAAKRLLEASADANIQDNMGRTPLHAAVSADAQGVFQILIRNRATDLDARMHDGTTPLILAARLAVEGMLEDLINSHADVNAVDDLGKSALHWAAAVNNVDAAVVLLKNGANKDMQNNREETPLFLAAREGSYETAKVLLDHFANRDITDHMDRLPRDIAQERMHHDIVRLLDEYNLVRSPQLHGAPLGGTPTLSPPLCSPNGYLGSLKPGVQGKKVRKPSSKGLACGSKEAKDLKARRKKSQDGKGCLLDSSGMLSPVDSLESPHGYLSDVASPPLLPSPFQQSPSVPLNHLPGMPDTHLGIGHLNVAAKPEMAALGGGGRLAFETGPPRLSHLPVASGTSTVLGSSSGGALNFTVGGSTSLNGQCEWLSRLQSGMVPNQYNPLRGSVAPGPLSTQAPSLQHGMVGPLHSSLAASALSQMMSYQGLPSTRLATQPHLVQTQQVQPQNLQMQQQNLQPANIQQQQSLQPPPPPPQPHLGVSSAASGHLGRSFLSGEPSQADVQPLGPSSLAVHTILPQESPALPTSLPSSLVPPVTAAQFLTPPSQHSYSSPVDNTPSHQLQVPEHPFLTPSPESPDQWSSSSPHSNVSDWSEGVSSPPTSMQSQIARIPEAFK
UniProt Q96DE0: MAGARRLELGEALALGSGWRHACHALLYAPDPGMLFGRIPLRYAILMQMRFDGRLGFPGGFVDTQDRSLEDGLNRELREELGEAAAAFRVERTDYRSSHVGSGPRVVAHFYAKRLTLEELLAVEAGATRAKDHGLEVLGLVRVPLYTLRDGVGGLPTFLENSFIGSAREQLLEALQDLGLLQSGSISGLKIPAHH
UniProt Q9Y266: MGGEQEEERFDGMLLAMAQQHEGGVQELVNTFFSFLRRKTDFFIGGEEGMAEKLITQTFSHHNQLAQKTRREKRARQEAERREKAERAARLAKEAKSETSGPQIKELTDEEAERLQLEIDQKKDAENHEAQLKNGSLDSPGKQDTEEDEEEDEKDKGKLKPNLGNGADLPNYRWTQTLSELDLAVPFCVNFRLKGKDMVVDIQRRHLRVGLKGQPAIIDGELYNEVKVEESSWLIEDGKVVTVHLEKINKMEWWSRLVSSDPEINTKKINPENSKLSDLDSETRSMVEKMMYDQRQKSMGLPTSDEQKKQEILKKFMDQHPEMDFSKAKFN
UniProt Q6ZVK8: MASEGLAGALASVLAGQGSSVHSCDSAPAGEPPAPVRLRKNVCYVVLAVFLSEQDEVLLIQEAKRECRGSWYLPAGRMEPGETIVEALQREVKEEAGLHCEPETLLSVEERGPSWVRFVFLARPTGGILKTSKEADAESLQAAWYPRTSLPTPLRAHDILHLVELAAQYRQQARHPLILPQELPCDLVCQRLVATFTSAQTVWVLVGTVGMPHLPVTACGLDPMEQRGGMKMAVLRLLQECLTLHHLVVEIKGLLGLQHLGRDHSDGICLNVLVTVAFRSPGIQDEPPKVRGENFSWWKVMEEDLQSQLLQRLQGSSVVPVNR
UniProt P48645: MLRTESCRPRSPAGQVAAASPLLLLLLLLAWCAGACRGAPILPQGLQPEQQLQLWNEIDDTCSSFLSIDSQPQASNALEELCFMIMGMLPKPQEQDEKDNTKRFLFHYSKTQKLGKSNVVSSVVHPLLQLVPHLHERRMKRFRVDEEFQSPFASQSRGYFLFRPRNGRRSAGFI
UniProt O75052: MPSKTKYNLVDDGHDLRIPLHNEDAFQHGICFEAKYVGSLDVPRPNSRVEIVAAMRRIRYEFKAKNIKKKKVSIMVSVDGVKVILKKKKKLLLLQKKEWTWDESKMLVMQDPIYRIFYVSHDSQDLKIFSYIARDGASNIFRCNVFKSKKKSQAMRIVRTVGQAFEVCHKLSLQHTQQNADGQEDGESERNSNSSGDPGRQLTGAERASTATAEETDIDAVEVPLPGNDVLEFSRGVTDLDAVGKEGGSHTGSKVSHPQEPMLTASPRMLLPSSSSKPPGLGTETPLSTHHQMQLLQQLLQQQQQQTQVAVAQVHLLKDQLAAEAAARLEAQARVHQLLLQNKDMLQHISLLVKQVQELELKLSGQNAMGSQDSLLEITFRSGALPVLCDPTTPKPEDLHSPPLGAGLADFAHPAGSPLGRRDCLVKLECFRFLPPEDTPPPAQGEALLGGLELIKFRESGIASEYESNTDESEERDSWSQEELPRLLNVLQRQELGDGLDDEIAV
UniProt Q9BXD5: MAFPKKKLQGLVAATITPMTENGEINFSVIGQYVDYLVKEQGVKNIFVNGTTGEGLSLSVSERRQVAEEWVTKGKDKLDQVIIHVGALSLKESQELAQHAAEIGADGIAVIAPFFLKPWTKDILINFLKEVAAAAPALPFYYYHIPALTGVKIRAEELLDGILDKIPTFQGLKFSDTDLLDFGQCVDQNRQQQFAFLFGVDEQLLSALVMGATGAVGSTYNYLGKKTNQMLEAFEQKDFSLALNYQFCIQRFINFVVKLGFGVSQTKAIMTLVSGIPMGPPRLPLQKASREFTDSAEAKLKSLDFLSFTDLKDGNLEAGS
UniProt Q76FK4: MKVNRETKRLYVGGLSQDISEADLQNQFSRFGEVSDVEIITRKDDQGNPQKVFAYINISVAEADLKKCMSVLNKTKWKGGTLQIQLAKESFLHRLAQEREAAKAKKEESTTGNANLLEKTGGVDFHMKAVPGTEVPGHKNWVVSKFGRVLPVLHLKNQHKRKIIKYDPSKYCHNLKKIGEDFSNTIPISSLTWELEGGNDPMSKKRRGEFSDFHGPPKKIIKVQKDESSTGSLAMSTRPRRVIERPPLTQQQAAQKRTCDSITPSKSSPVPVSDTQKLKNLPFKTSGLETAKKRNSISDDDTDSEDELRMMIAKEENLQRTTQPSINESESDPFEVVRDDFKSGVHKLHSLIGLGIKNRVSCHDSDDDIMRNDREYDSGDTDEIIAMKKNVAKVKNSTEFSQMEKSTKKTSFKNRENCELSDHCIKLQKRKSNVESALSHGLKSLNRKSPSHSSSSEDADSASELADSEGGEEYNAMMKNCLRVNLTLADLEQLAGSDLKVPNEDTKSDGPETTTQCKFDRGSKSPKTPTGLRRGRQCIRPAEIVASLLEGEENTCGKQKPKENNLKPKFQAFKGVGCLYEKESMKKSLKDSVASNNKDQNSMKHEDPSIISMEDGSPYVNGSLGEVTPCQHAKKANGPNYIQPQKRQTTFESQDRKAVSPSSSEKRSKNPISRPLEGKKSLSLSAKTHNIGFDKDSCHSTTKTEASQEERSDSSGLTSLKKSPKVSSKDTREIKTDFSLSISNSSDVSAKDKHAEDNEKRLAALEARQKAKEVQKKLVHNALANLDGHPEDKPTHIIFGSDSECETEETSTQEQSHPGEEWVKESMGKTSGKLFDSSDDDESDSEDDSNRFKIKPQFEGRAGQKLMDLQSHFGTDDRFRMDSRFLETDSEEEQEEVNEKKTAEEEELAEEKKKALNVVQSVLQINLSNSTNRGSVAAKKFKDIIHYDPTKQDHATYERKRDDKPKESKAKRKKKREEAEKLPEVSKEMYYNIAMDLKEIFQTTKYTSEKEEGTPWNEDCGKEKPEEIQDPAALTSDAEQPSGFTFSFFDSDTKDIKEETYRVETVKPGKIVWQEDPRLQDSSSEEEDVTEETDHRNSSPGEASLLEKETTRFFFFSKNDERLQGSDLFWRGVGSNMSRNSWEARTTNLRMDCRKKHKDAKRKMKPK
UniProt O00746: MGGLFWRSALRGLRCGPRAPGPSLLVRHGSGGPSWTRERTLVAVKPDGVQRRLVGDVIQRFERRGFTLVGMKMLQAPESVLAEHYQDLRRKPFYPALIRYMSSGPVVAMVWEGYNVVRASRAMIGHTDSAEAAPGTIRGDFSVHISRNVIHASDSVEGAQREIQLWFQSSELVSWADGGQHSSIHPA

Key:
Test in all cases: log2 fold change, soluble protein after heating vs DMSO (PISA); higher = thermal stabilisation; K562 lysate, 10 uM; active = over 0.2 and 3.5 SD of the protein, either way, in both replicates (recomputed)
erlotinib = compound: C#Cc1cccc(Nc2ncnc3cc(OCCOC)c(OCCOC)cc23)c1 [erlotinib]
Outline: (§1)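 Quantification was by TMTpro 16plex LC-MS/MS with equalised channel sums, applied to the supernatant after 21,000xg for 90 min. Samples were crude K562 extract at 1 mg/mL protein in PBS pH 7.4 with 1 mM MgCl2, treated with 10 μM compound for 30 min, heated for 3 min across 48°C-58°C, pooled and brought to 0.5% NP-40 at 4°C. Values are log-two fold changes in thermal stability relative to solvent controls, from duplicates.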

[1] = compound: C/C(=N\NC(=O)C1=CC(=CC=C1)S(=O)(=O)N2CCOCC2)/C3=C(C=CC(=C3)Cl)O
Outline: as §1

[2] = compound: C1=CC(=CC=C1C2=NC3=C(N2)C=C(C=C3)C(=O)N)OC4=CC=C(C=C4)Cl
Outline: as §1

[3] = compound: C1=CC2=C(C=CC(=C2)/C=C\3/C(=O)NC(=NCC4=CC=CS4)S3)N=C1
Outline: as §1

[4] = compound: C1=CC2=NC=CN=C2C=C1/C=C/3\C(=O)NC(=O)S3
Outline: as §1

[5] = compound: C1=CC=C(C=C1)C2=NC(=C(N2)C3=CC=NC=C3)C4=CC(=C(C=C4)Cl)O
Outline: as §1

[6] = compound: C1=CC=C2C(=C1)C3=NNC4=CC=CC(=C43)C2=O
Outline: as §1

[7] = compound: C1CCN(C1)C(=O)NC2=CC=CC(=C2)NC3=NC=C(C(=N3)NCCC4=CN=CN4)Br
Outline: as §1

[8] = compound: C1CN(CCC1(CC2=CC=C(C=C2)Cl)N)C3=NC=NC4=C3C=CN4
Outline: as §1

IRAK-1-4 Inhibitor I = compound: C1COCCN1CCN2C3=CC=CC=C3N=C2NC(=O)C4=CC(=CC=C4)[N+](=O)[O-] [IRAK-1-4 Inhibitor I]
Outline: as §1

ibrutinib = compound: C=CC(=O)N1CCC[C@@H](n2nc(-c3ccc(Oc4ccccc4)cc3)c3c(N)ncnc32)C1 [ibrutinib]
Outline: as §1

[9] = compound: CC(=O)c1cnc2ccc(-c3cc(Cl)c(O)c(Cl)c3)nc2c1N[C@H]1CC[C@H](CN(C)C)CC1
Outline: as §1

ralimetinib = compound: CC(C)(C)Cn1c(N)nc2ccc(-c3[nH]c(C(C)(C)C)nc3-c3ccc(F)cc3)nc21 [ralimetinib]
Outline: as §1

[10] = compound: CC(C)(O)CC(=O)NCCn1ccc2ncnc(Nc3ccc(Oc4cccc(C(F)(F)F)c4)c(Cl)c3)c21
Outline: as §1

[11] = compound: CC(C)C1=C2N=C(C=C(N2N=C1)NCC3=CC=CC=C3)NCCCCCCN
Outline: as §1

[12] = compound: CC1=C(C=C(C=C1)NC(=O)C2=CC(=CC=C2)C(C)(C)C#N)NC3=CC4=C(C=C3)N=CN(C4=O)C
Outline: as §1

[13] = compound: CC1=C(C=C(C=C1)NC(=O)C2=CC(=CC=C2)N(C)C)NC(=O)C3=CC=C(C=C3)O
Outline: as §1

[14] = compound: CC1=CC=C(C=C1)SC2=C3C=C(SC3=CN=C2)C(=O)N
Outline: as §1

[15] = compound: CC1=C(C(CC(=O)N1)C2=CC=C(C=C2)C(F)(F)F)C(=O)NC3=C(C=C4C(=C3)C=NN4)F
Outline: as §1

[16] = compound: CC1=C(C2=C(C=C1)C(=O)C3=CC=CC=C3N2CCCN)C
Outline: as §1

Measured: log2 fold change

NSUN7 (UniProt Q8NE18)
inactive: erlotinib -0.037 | [1] -0.271 | [2] 0.019 | [3] -0.095 | [4] 0.198 | [5] -0.031 | [6] -0.087 | [7] -0.026 | [8] -0.042 | IRAK-1-4 Inhibitor I 0.068 | ibrutinib 0.076 | [9] -0.025 | ralimetinib 0.168 | [10] -0.137 | [11] 0.042 | [12] 0.102 | [13] -0.009 | [14] -0.017

NOTCH1 (UniProt P46531)
inactive: erlotinib -0.039 | [1] -0.017 | [2] 0.054 | [3] -0.084 | [5] -0.105 | [6] -0.091 | [7] 0.055 | [8] -0.214 | IRAK-1-4 Inhibitor I 0.108 | [9] 0.034 | ralimetinib 0.008 | [10] -0.124 | [11] -0.124 | [15] 0.009 | [16] -0.073 | [12] 0 | [13] 0.026 | [14] -0.023

NUDT16 (UniProt Q96DE0)
inactive: erlotinib 0.009 | [1] 0.072 | [2] 0.026 | [3] 0.08 | [4] -0.009 | [5] -0.004 | [6] -0.027 | [7] -0.014 | [8] 0.027 | IRAK-1-4 Inhibitor I 0.057 | ibrutinib 0.045 | [9] -0.006 | ralimetinib -0.011 | [10] -0.007 | [11] -0.038 | [15] -0.025 | [16] -0.051 | [12] 0.036 | [13] -0.007 | [14] 0.002

NUDC (UniProt Q9Y266)
inactive: erlotinib -0.03 | [1] 0.052 | [2] 0.003 | [3] -0.027 | [4] -0.012 | [5] 0.016 | [6] 0.005 | [7] -0.007 | [8] 0.008 | IRAK-1-4 Inhibitor I 0.004 | ibrutinib 0 | [9] 0.001 | ralimetinib -0.019 | [10] 0.013 | [11] -0.012 | [15] -0.026 | [16] 0.012 | [12] -0.027 | [13] 0.005 | [14] 0.008

NUDCD3 (UniProt Q8IVD9)
inactive: erlotinib -0.013 | [1] 0.014 | [2] -0.009 | [3] -0.019 | [4] -0.009 | [5] -0.021 | [6] 0.024 | [7] -0.003 | [8] -0.019 | IRAK-1-4 Inhibitor I 0.001 | ibrutinib 0.002 | [9] -0.007 | ralimetinib 0.021 | [10] 0 | [11] -0.057 | [15] 0.005 | [16] 0.009 | [12] 0.034 | [13] -0.009 | [14] 0.004

NUDT18 (UniProt Q6ZVK8)
inactive: erlotinib -0.042 | [1] 0.135 | [2] 0.003 | [3] 0.039 | [5] 0 | [6] -0.109 | [7] 0.143 | [8] -0.074 | IRAK-1-4 Inhibitor I 0.392 | ralimetinib 0.133 | [10] -0.2 | [11] -0.25 | [12] 0.007 | [13] -0.239

NMU (UniProt P48645)
inactive: erlotinib -0.052 | [1] -0.006 | [2] 0.11 | [3] 0.018 | [6] -0.187 | [7] -0.079 | [8] -0.049 | [11] 0.096 | [12] -0.063

NOS3 (UniProt P29474)
inactive: erlotinib 0.009 | [1] -0.048 | [2] -0.023 | [3] -0.156 | [6] 0.034 | [11] -0.023 | [15] 0.075

NOS1AP (UniProt O75052)
inactive: erlotinib -0.044 | [1] -0.258 | [2] -0.129 | [3] -0.052 | [4] -0.047 | [5] -0.071 | [6] -0.435 | [7] -0.025 | [8] -0.085 | IRAK-1-4 Inhibitor I 0.101 | ibrutinib -0.111 | [9] 0.07 | ralimetinib 0.14 | [10] -0.049 | [11] -0.099 | [15] -0.238 | [12] 0.089 | [13] 0.05 | [14] -0.1

NMT2 (UniProt O60551)
inactive: erlotinib 0.024 | [1] -0.025 | [2] 0.094 | [3] 0.006 | [4] -0.007 | [5] -0.003 | [6] 0.001 | [7] 0.011 | [8] -0.062 | IRAK-1-4 Inhibitor I 0.052 | ibrutinib -0.012 | [9] 0 | ralimetinib -0.019 | [10] -0.016 | [11] 0.005 | [15] -0.042 | [16] -0.007 | [12] -0.007 | [13] 0.018 | [14] 0.026

NPL (UniProt Q9BXD5)
inactive: erlotinib -0.001 | [1] 0 | [2] -0.028 | [3] -0.068 | [4] 0.004 | [6] -0.166 | [7] 0.024 | [8] -0.059 | ibrutinib 0.034 | [9] -0.012 | [11] -0.004 | [15] 0.059 | [16] -0.053 | [14] 0.032

Taken from the entries so far (2 entries):
NSUN7 (UniProt Q8NE18)
inactive: erlotinib -0.037 | [1] -0.271 | [2] 0.019 | [3] -0.095 | [4] 0.198 | [5] -0.031 | [6] -0.087 | [7] -0.026 | [8] -0.042 | IRAK-1-4 Inhibitor I 0.068 | ibrutinib 0.076 | [9] -0.025 | ralimetinib 0.168 | [10] -0.137 | [11] 0.042 | [12] 0.102 | [13] -0.009 | [14] -0.017

NOTCH1 (UniProt P46531)
inactive: erlotinib -0.039 | [1] -0.017 | [2] 0.054 | [3] -0.084 | [5] -0.105 | [6] -0.091 | [7] 0.055 | [8] -0.214 | IRAK-1-4 Inhibitor I 0.108 | [9] 0.034 | ralimetinib 0.008 | [10] -0.124 | [11] -0.124 | [15] 0.009 | [16] -0.073 | [12] 0 | [13] 0.026 | [14] -0.023

Continuation.

NOL8 (UniProt Q76FK4)
inactive: erlotinib 0.08 | [1] 0.11 | [2] -0.025 | [3] 0.16 | [5] -0.045 | [6] 0.035 | IRAK-1-4 Inhibitor I 0.088 | [9] 0.051 | ralimetinib 0.015 | [10] -0.128 | [11] -0.023 | [16] -0.041 | [12] 0.069 | [13] 0.157 | [14] 0.03

NME4 (UniProt O00746)
inactive: erlotinib -0.126 | [2] -0.084 | [5] 0.274 | [7] 0.01 | [8] 0.103 | IRAK-1-4 Inhibitor I 0.156 | ralimetinib -0.173 | [10] -0.059 | [11] 0.068 | [12] 0.08 | [13] 0.078

NSD3 (UniProt Q9BZ95)
inactive: [4] -0.404 | [5] -0.152 | [7] -0.011 | [8] 0.005 | IRAK-1-4 Inhibitor I 0.071 | ibrutinib 0 | ralimetinib -0.066 | [10] 0.036 | [15] 0.055 | [16] 0.144 | [12] 0.043 | [13] 0.075
